PubChem BioAssay AID1159508 – Drosophila RNAi Screening Center | 2015
Test: 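Overall cell fitness after RNAi as a quality check of the library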. Cell system: Drosophila S2R+ cells. Reagents: long dsRNA against Drosophila genes. Duration: 5 days. Measurement: 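Luminescent ATP signal as a proxy for cell fitness after 5 days of RNAi, given as a z-score in each replicate and averaged over replicates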. Scale: mean ATP z-score: higher = more total ATP luminescence. Call rule: In these data the active calls have mean ATP z-score at about -2 or lower, or at about 2 or higher. Meaning of the calls: active = strong ATP change (up or down); inactive = no strong ATP change.
The deposit covers 812 reagents; this is a random part of them. Of all reagents, 18 (2.2%) were called active. 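Calls include both increased and decreased ATP; roughly one in four reagents has no third replicate value.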 Entries without a mark were called inactive. The numbers tell different reagents against one gene apart. Names joined by + are all predicted targets of the reagent. Not all columns of the deposit are shown. Reagent sequences are not shown. Not given: the amount of reagent.

Which result is listed for qkr54B (quaking related 54B) #1?
mean ATP z-score: 0.232

What did the screen give for qkr54B (quaking related 54B) #2?
mean ATP z-score: -1.14

With CG10341 #1, how do the results read?
mean ATP z-score: 0.296

What did the screen give for CG10341 #2?
mean ATP z-score: -1.14

With CHKov1 (CHK domain ov1) #1, what was measured?
mean ATP z-score: -0.491

What did the screen give for CHKov1 (CHK domain ov1) #2?
mean ATP z-score: 0.421

With yps (ypsilon schachtel) #1, what does the deposit list?
mean ATP z-score: -1.07

What is on record for yps (ypsilon schachtel) #2?
mean ATP z-score: 0.0103

What did the screen give for CG42372 + CG30100 #1?
mean ATP z-score: -0.561

What is on record for CG42372 + CG30100 #2?
mean ATP z-score: 0.167

How did the screen score qkr58E-1 (quaking related 58E-1) #1?
mean ATP z-score: 0.711

What is on record for qkr58E-1 (quaking related 58E-1) #2?
mean ATP z-score: -0.0468

Which result is listed for CG7879 #1?
mean ATP z-score: 0.0819

How did the screen score CG7879 #2?
mean ATP z-score: -0.834

Which result is listed for ps (pasilla) #1?
mean ATP z-score: 0.608

With ps (pasilla) #2, how do the results read?
mean ATP z-score: 0.517

What is on record for lark #1?
mean ATP z-score: -0.964

Which result is listed for lark #2?
mean ATP z-score: -0.217

For Slbp (Stem-loop binding protein) #1, what does the deposit list?
mean ATP z-score: 0.146

Which result is listed for Slbp (Stem-loop binding protein) #2?
mean ATP z-score: 0.0313

What did the screen give for LS2 (Large Subunit 2) #1?
mean ATP z-score: -0.0229

With LS2 (Large Subunit 2) #2, what does the deposit list?
mean ATP z-score: -0.0833

How did the screen score Mtr3 #1?
mean ATP z-score: -0.257

What did the screen give for Mtr3 #2?
mean ATP z-score: -0.11

With egl (egalitarian) #1, what does the deposit list?
mean ATP z-score: -0.109

With egl (egalitarian) #2, what does the deposit list?
mean ATP z-score: -0.383

How did the screen score CG11726 #1?
mean ATP z-score: -0.432

Which result is listed for CG11726 #2?
mean ATP z-score: 0.445

6 entries from above, arranged by “mean ATP z-score”, high to low:
ps (pasilla) #1: mean ATP z-score = 0.608
ps (pasilla) #2: mean ATP z-score = 0.517
CG7879 #1: mean ATP z-score = 0.0819
lark #2: mean ATP z-score = -0.217
CG7879 #2: mean ATP z-score = -0.834
lark #1: mean ATP z-score = -0.964

The results go on.
For eIF3k (eukaryotic translation initiation factor 3 subunit k) #1, what was measured?
mean ATP z-score: 0.752

What did the screen give for eIF3k (eukaryotic translation initiation factor 3 subunit k) #2?
mean ATP z-score: -0.434

With Tdrd3 (Tudor domain containing 3) #1, what does the deposit list?
mean ATP z-score: -0.516

With Tdrd3 (Tudor domain containing 3) #2, what was measured?
mean ATP z-score: -0.0509

With wisp (wispy) #1, what was measured?
mean ATP z-score: 0.248

Which result is listed for wisp (wispy) #2?
mean ATP z-score: 0.62

How did the screen score Adat1 (Adenosine deaminase, tRNA-specific 1) #1?
mean ATP z-score: 0.463

Which result is listed for Adat1 (Adenosine deaminase, tRNA-specific 1) #2?
mean ATP z-score: -0.744

Which result is listed for Rbfox1 (RNA-binding Fox protein 1) #1?
mean ATP z-score: 0.55

What did the screen give for Rbfox1 (RNA-binding Fox protein 1) #2?
mean ATP z-score: 0.558

What is on record for Rrp4 #1?
mean ATP z-score: -0.149

How did the screen score Rrp4 #2?
mean ATP z-score: 0.521

With CG14414 #1, what does the deposit list?
mean ATP z-score: -0.569

What is on record for CG14414 #2?
mean ATP z-score: -0.0998
